The target of the experiment is HA-tagged mouse DIC (dynein intermediate chain), full protein (mouse). The experiment can be described thus: co-IP; HEK293T cells co-transfected with HA-DIC and GFP-NDE1 WT or GFP-tagged NDE1 fragments; lysed in TNE buffer/1% NP40; anti-HA antibody overnight at 4 °C, rProtein G agarose 6 h at 4 °C, five washes with TNE buffer; western blot with anti-GFP antibody.

Results are given in words; binding and its absence hold for the method and conditions named. Binding seen in cells or lysates may run through a third protein. Binding can be weak; no strength is given. Sequences can lack the tags named with a protein.

B1: GFP-tagged mouse NDE1 C-terminal region (NDE1 Ct, amino acids 176-344) (domain or fragment, UniProt Q9CZA6 176-344)
chain: LRQELAVQQKQDKPRTPMPGSGQAKRTDMAVQATGSVPSTPVAHRGPSSGLNTPGMFRRGLDSSTSGTPLTPAARISALNIVGDLLRKVGALESKLASCRNFMYDQSPSRTSGPASGRGTKNRDGVDRRPGSTSVGDKGSGKRLEFGKPASEPASPALPSAQGVVKLLL
For the molecule B1, the binding entry is recorded as “no binding”.

B2: GFP-tagged mouse NDE1 DIC-binding region (NDE1 BR, amino acids 1-100) (domain or fragment, UniProt Q9CZA6 1-100)
chain: MEDSGKTFESEEEETNYWRDLAMTYKQRAENTQEELREFQEGSREYEAELEAQLQQIETRNRDLLSENNRLRMELESVKEKFEMQHSEGYRQISALEDDL
With B2, the binding entry is on record as “binds”.

B3: GFP-tagged full-length wild-type mouse NDE1 (NDE1 WT, amino acids 1-344) (protein, UniProt Q9CZA6 1-344)
chain: MEDSGKTFESEEEETNYWRDLAMTYKQRAENTQEELREFQEGSREYEAELEAQLQQIETRNRDLLSENNRLRMELESVKEKFEMQHSEGYRQISALEDDLAQTKAIKDQLQKYIRELEQANDDLERAKRATIMSLEDFEQRLNQAIERNAFLESELDEKENLLESVQRLKDEARDLRQELAVQQKQDKPRTPMPGSGQAKRTDMAVQATGSVPSTPVAHRGPSSGLNTPGMFRRGLDSSTSGTPLTPAARISALNIVGDLLRKVGALESKLASCRNFMYDQSPSRTSGPASGRGTKNRDGVDRRPGSTSVGDKGSGKRLEFGKPASEPASPALPSAQGVVKLLL
In the case of B3, the binding entry is reported as “binds”.

B4: GFP-tagged mouse NDE1 N-terminal region (NDE1 Nt, amino acids 1-182) (domain or fragment, UniProt Q9CZA6 1-182)
chain: MEDSGKTFESEEEETNYWRDLAMTYKQRAENTQEELREFQEGSREYEAELEAQLQQIETRNRDLLSENNRLRMELESVKEKFEMQHSEGYRQISALEDDLAQTKAIKDQLQKYIRELEQANDDLERAKRATIMSLEDFEQRLNQAIERNAFLESELDEKENLLESVQRLKDEARDLRQELAV
Turning to B4, the binding result is “binds”.
